Results on one molecule are retold here after doi:10.1101/438945.

No constants are given. Whether binding was seen depends on the method and setting. In cells and extracts the contact can be indirect. Here binding means that the protein was enriched with, or labelled near, the bait; the list need not be complete. Where a sequence is shown, tags or fusion partners need not be part of it.

The test deals with T1, PALB2-GFP (mouse, Palb2^GFP/GFP knock-in) (mouse (endogenous in mES cells)), Q3U0P1.
T1 chain: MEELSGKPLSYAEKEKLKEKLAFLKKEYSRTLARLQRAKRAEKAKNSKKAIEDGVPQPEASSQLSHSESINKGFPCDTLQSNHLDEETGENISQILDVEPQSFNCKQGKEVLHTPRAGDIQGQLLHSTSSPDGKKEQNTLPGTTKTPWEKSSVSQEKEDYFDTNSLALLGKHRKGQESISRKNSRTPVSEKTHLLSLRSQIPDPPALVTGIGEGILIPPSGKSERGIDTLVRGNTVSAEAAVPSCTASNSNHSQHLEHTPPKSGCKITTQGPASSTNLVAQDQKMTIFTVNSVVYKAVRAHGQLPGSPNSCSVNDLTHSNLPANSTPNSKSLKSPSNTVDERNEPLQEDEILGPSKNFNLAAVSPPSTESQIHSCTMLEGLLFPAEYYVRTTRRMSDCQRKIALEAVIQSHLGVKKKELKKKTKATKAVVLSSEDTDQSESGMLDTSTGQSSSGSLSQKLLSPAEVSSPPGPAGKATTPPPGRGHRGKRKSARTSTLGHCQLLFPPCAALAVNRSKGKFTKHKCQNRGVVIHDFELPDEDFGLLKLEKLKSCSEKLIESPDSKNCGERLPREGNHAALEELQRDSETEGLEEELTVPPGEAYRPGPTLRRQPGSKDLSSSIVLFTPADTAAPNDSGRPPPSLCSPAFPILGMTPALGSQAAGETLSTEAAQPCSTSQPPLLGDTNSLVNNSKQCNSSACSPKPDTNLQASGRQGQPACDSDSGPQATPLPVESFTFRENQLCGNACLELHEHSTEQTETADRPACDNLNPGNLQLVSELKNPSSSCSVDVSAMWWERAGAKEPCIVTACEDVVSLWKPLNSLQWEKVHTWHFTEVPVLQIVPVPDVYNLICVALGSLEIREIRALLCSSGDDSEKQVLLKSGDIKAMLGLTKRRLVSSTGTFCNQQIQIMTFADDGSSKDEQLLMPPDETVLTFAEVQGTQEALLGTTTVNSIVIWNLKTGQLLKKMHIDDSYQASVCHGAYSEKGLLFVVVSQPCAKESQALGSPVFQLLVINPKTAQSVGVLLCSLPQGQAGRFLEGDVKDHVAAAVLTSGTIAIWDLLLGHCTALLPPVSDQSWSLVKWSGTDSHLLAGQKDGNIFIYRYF
The experiment in a line: affinity purification with mass spectrometry. Conditions: remark: other sources report otherwise.

B1: HSF2BP (mouse, endogenous in mES cells), Q9D4G2 1-338 (protein)
chain: MAATVGDGSGTEEACRNMESKEEFVKVRKKDLERLTTEVMQIRDFLPRILNGELLESFQKLKMVEKNLERKEQELEQLIMDREHFKARLETAQADSGREKKEKLALRQQLNEAKQQLLQQAEYCTQMGAVTCTLLWGVSSSEEVVKTILGGDKALKFFNITGQTMESFVKSLDGDVKEVDSDENQFVFALAGIVTNVAAIACGREFLVNSSRVLLDTMLQLLGDLKPGQCTKLKVLMLMSLYNVSINSKGLKYITESPGFIPLLWWLLSDPDAEVCLHTLRLIQSVVLEPDVFSKVASELQSSLPLQRILAMSKSRNSHLQSAAQELLEDLRALDCNV
For B1, the binding entry is given as “binds”.
